Experimental data from PubChem BioAssay AID248 (DTP/NCI, 2004).
The list is a part of this screen's results and no random one: it is rich in T/C values a quarter to a half above the control, in often repeated tests (any T/C) and in doses without a T/C. Other doses and runs of a compound stand elsewhere. T/C is the treated group as % of the vehicle group. Some doses have a count of surviving animals in place of a T/C: the source files T/C as zero there, which appears to mark a toxic dose or a test without result, not a measured value. Some doses without a T/C left all or most animals alive at the check, yet need not have been tolerated: survival well below the control is almost never listed, so the zero probably covers shortened survival too. Survivors were counted at the toxicity check, usually on the fifth day, unless a day is given; later deaths do not show. Schedules are NCI's codes, read here as Q, the interval in days (D) or hours (H), X, the number of doses. Some molecules as drawn cover several salts, stereoisomers or complexes of the source; a dose is that of the sample tested. Some entries were tested several times; their values stand side by side, smallest first. Brackets with × say how often a value occurs here. Where survival is the endpoint, this PubChem deposit counts one and a half times the control or more as active, and values a quarter to a half above the control carry no call in these data; other NCI protocols may use other cut-offs. Some T/C values carry the count of animals alive at the toxicity check (mostly the fifth day); where none is given, no animal had died by that day.

Tested on: L1210 leukemia ip in BDF1 mice, survival T/C
Experiment: NCI In Vivo Anticancer Drug Screen. Data for tumor model L1210 Leukemia (intraperitoneal) in B6D2F1 (BDF1) mice
Details: T/C endpoint: mean survival time, higher T/C = longer survival
[1] = dose: 400.0 mg/kg/injection, schedule: Q01DX001 (ip), vehicle: saline
[2] = dose: 200.0 mg/kg/injection, schedule: Q01DX009 (ip), vehicle: saline
[3] = dose: 400.0 mg/kg/injection, schedule: Q04DX003 (ip), vehicle: saline

CCOC(=O)c1cccc2nc3n(c12)CCC3
survivor count (dose: 400.0 mg/kg/injection, schedule: Q01DX001 (ip), vehicle: saline with Tween-80): 2 of 6

Nc1nc(N)c2c(n1)CN(CC1CCC(Cl)CC1)C2 (stereo not given)
survivor count (dose: 100.0 mg/kg/injection, schedule: Q01DX009 (ip), vehicle: saline with Tween-80): 0 of 6
survivor count (dose: 200.0 mg/kg/injection, schedule: Q01DX009 (ip), vehicle: saline with Tween-80): 0 of 6
survivor count (dose: 400.0 mg/kg/injection, schedule: Q01DX009 (ip), vehicle: saline with Tween-80): 0 of 6

c1ccc(C2=C([P+](c3ccccc3)(c3ccccc3)c3ccccc3)CCO2)cc1
survivor count (dose: 25.0 mg/kg/injection, schedule: Q01DX001 (ip), vehicle: saline): 3 of 6
survivor count (dose: 25.0 mg/kg/injection, schedule: Q04DX003 (ip), vehicle: saline): 3 of 6
survivor count (dose: 50.0 mg/kg/injection, schedule: Q01DX001 (ip), vehicle: saline): 2 of 6
survivor count (dose: 50.0 mg/kg/injection, schedule: Q04DX003 (ip), vehicle: saline): 4 of 6
survivor count (dose: 100.0 mg/kg/injection, schedule: Q01DX001 (ip), vehicle: saline): 0 of 6
survivor count (dose: 200.0 mg/kg/injection, schedule: Q01DX001 (ip), vehicle: saline): 0 of 6
survivor count [1]: 0 of 6

CN1CCN(C(=O)CCCCCCCCC(Br)CBr)CC1 (stereo not given)
survivor count (dose: 30.0 mg/kg/injection, schedule: Q01DX001 (ip), vehicle: saline): 0 of 6
survivor count (dose: 60.0 mg/kg/injection, schedule: Q01DX001 (ip), vehicle: saline): 0 of 6

Cc1ccnc(N)c1
survivor count (dose: 100.0 mg/kg/injection, schedule: Q04DX002 (ip), vehicle: saline): 1 of 3
survivor count (dose: 200.0 mg/kg/injection, schedule: Q04DX002 (ip), vehicle: saline): 0 of 3
survivor count (dose: 400.0 mg/kg/injection, schedule: Q04DX002 (ip), vehicle: saline): 0 of 3

O=[N+]([O-])c1cc(Cl)cc(Br)c1O
survivor count (dose: 200.0 mg/kg/injection, schedule: Q04DX003 (ip), vehicle: Klucel (hydroxypropylcellulose) (HPC)): 6 of 6
survivor count (dose: 400.0 mg/kg/injection, schedule: Q04DX003 (ip), vehicle: Klucel (hydroxypropylcellulose) (HPC)): 6 of 6

COc1ccc(C(=O)C(Br)C(Br)C(=O)O)cc1 (stereo not given)
survivor count [2]: 2 of 6
survivor count (dose: 200.0 mg/kg/injection, schedule: Q04DX003 (ip), vehicle: saline with Tween-80): 1 of 6 and 3 of 6
survivor count (dose: 200.0 mg/kg/injection, schedule: Q04DX003 (ip), vehicle: saline): 3 of 6
survivor count (dose: 400.0 mg/kg/injection, schedule: Q04DX003 (ip), vehicle: saline with Tween-80): 0 of 6
survivor count [3]: 2 of 6 and 3 of 6

O=C1C=CC(=O)O1 (tested in a mixture with another compound)
survivor count (dose: 10.0 mg/kg/injection, schedule: Q04DX003 (ip), vehicle: Klucel (hydroxypropylcellulose) (HPC)): 3 of 6
survivor count (dose: 12.5 mg/kg/injection, schedule: Q04DX003 (ip), vehicle: carboxymethylcellulose (CMC)): 6 of 6
survivor count (dose: 25.0 mg/kg/injection, schedule: Q04DX003 (ip), vehicle: carboxymethylcellulose (CMC)): 6 of 6
survivor count (dose: 50.0 mg/kg/injection, schedule: Q01DX015 (ip), vehicle: carboxymethylcellulose (CMC)): 6 of 6
survivor count (dose: 50.0 mg/kg/injection, schedule: Q04DX003 (ip), vehicle: carboxymethylcellulose (CMC)): 4 of 6
survivor count (dose: 60.0 mg/kg/injection, schedule: Q01DX001 (ip), vehicle: carboxymethylcellulose (CMC)): 1 of 6
survivor count (dose: 100.0 mg/kg/injection, schedule: Q01DX001 (ip), vehicle: other): 0 of 6
T/C (dose: 100.0 mg/kg/injection, schedule: Q01DX009 (ip), vehicle: saline): 132 % of control [5 of 6 alive]
survivor count (dose: 100.0 mg/kg/injection, schedule: Q04DX003 (ip), vehicle: other): 4 of 6
survivor count (dose: 150.0 mg/kg/injection, schedule: Q01DX001 (ip), vehicle: carboxymethylcellulose (CMC)): 5 of 6
survivor count (dose: 200.0 mg/kg/injection, schedule: Q01DX001 (ip), vehicle: other): 0 of 6
survivor count [2]: 0 of 6 and 3 of 6
survivor count (dose: 200.0 mg/kg/injection, schedule: Q04DX003 (ip), vehicle: other): 1 of 6
survivor count (dose: 300.0 mg/kg/injection, schedule: Q01DX001 (ip), vehicle: carboxymethylcellulose (CMC)): 1 of 6
survivor count (dose: 400.0 mg/kg/injection, schedule: Q01DX001 (ip), vehicle: other): 0 of 6
survivor count (dose: 400.0 mg/kg/injection, schedule: Q01DX009 (ip), vehicle: saline): 1 of 6 (2×) and 3 of 6
survivor count (dose: 400.0 mg/kg/injection, schedule: Q04DX003 (ip), vehicle: other): 1 of 6
survivor count [3]: 2 of 6 (3×) and 3 of 6
survivor count (dose: 800.0 mg/kg/injection, schedule: Q01DX009 (ip), vehicle: saline): 0 of 6

NNc1ccccc1Cl
survivor count (dose: 300.0 mg/kg/injection, schedule: Q01DX001 (ip), vehicle: other): 0 of 6
survivor count (dose: 400.0 mg/kg/injection, schedule: Q01DX001 (ip), vehicle: carboxymethylcellulose (CMC)): 0 of 4

C/C=C1\C[C@@H]2C(OC)Nc3cc(O)c(OC)cc3C(=O)N2C1 (stereo not given in full)
survivor count (dose: 0.37 mg/kg/injection, schedule: Q01DX009 (ip), vehicle: saline): 1 of 3
survivor count (dose: 0.75 mg/kg/injection, schedule: Q01DX009 (ip), vehicle: saline): 1 of 3

O=S1Oc2ccccc2O1
survivor count (dose: 300.0 mg/kg/injection, schedule: Q01DX001 (ip), vehicle: saline): 0 of 6

CCCCN(CCCl)C1c2ccccc2-c2ccccc21
survivor count (dose: 100.0 mg/kg/injection, schedule: Q04DX002 (ip), vehicle: Klucel (hydroxypropylcellulose) (HPC)): 3 of 3

CCNc1nnnn1-c1ccccc1
survivor count [1]: 2 of 4

Cc1ccc2c(c1)[n+]([O-])c(N)c(C#N)[n+]2[O-]
survivor count (dose: 400.0 mg/kg/injection, schedule: Q04DX002 (ip), vehicle: Klucel (hydroxypropylcellulose) (HPC)): 1 of 3
